Results are given in words; binding and its absence hold for the method and conditions named.

The target in this assay is mouse lactate dehydrogenase D (mLDHD), N-terminal truncated, residues 22-484 (mouse) (UniProt Q7TNG8). Description: SEC; purified mLDHD on Superdex 200 10/300; storage buffer 50 mM Tris-HCl pH 7.4, 200 mM NaCl, 1 mM EDTA; both purified. In general terms: SEC sorts molecules by how far they enter the pores of the column.

B1: mouse lactate dehydrogenase D (mLDHD), N-terminal truncated, residues 22-484 (enzyme, UniProt Q7TNG8 22-484)
chain: GSQGGLSQDFVEALKAVVGSPHVSTASAVREQHGHDESMHRCQPPDAVVWPQNVDQVSRVASLCYNQGVPIIPFGTGTGVEGGVCAVQGGVCINLTHMDQITELNTEDFSVVVEPGVTRKALNTHLRDSGLWFPVDPGADASLCGMAATGASGTNAVRYGTMRDNVINLEVVLPDGRLLHTAGRGRHYRKSAAGYNLTGLFVGSEGTLGIITSTTLRLHPAPEATVAATCAFPSVQAAVDSTVQILQAAVPVARIEFLDDVMMDACNRHSKLNCPVAPTLFLEFHGSQQTLAEQLQRTEAITQDNGGSHFSWAKEAEKRNELWAARHNAWYAALALSPGSKAYSTDVCVPISRLPEILVETKEEIKASKLTGAIVGHVGDGNFHCILLVDPDDAEEQRRVKAFAENLGRRALALGGTCTGEHGIGLGKRQLLQEEVGPVGVETMRQLKNTLDPRGLMNPGKVL
Turning to B1, the binding entry is listed as “no binding”.

For the origin of these results see publication PMC10589216, “Lactate dehydrogenase D is a general dehydrogenase for D-2-hydroxyacids and is associated with D-lactic acidosis” (Nature Communications, 2023).
